Experimental findings from paper PMC10163288 are described below.

Some of the results follow.

B1: il10ra_site1_normal_mot_8756ee2cf497b5429c717dfc0c0bcfd6_0001_000000186_0001_1_13_H_._HHH_b2_02097_0001_0000100006_0000001_0 (protein)
chain: SSSSDLEEAIELVRRVVELLHEGNVEEARELVEEAEKVVEEAGNDVLRWQLEYLKRLLERDSSSS
B2: il10ra_site1_sap_26_mot_HHH_b1_03314_af2_000000278_0001_42_55_H_._HHH_b2_05136_0002_0000600012_0000001_0_0001_af2pred_0001 (protein)
chain: SSSSSSSEEERAEELFEEFEKAKSEEERRRIFKELLELALKSKDREAARLTARLLKSGSSSSSSS
B3: il10ra_site1_normal_mot_HHH_b2_02375_000000081_0001_1_20_H_._HHH_b1_03982_0001_0000300040_0000001_0 (protein)
chain: SSSSDEAFEIVEKAYREALELLRRGNPEEAEKIVEEAIEEIEKLGNEVAVWALEHLLRQINSSSS
B4: il10ra_site1_sap_23_mot_HHH_b1_05754_000000029_0001_1_19_H_._HHH_b2_00883_0001_0000100008_0000001_0_0001 (protein)
chain: SSSEEEVERLVEEVERVAEEAGDPRARVAARFHANLARWALERNDEEALKQVSFALRVFIRAFSS
B5: il10ra_site1_normal_mot_HHH_b2_02337_000000026_0001_38_52_H_._HHH_b2_03336_0001_0000100004_0000001_0 (protein)
chain: SSSSSSDVEELLEEAEELAERGDPRWSRVLQEAVRHAIELGDAELLREIWELVQEIAKSSSSSSS
B6: il10ra_site1_normal_mot_HHH_b2_00441_000000147_0001_1_18_H_._HHH_b2_04136_0001_0000100001_0000001_0_af2pred_0001 (protein)
chain: SSSSSRDHELLEKTLEFVKFLIEQGDPEAARFLLRAAKQLAERAGDEEIQELLEELEELLNSSSS
B7: il10ra_site1_sap_12_mot_HHH_b2_05214_af2_000000028_0001_22_37_H_._HHH_b2_08161_0001_0000500026_0000002_0_0001 (protein)
chain: SSSSSDVEELLEEARELIEDGDPEEALRVLQEAERFIYRAGDAELLRELWELLEELLREGSSSSS
B8: il10ra_site1_sap_24_mot_HHH_b1_07100_000000193_0001_1_18_H_._HHH_b1_05358_0001_0000200004_0000001_0_0001_af2pred_0001 (protein)
chain: SSSSTTEQLVELALEAAKIALERGDPEKAREILEIAKLLAELANNEELKEKIEELEEEVENSSSS
B9: il10ra_site1_normal_mot_HHH_b2_00475_000000107_0001_44_57_H_._HHH_b1_06566_af2_0001_0000400028_0000001_0 (protein)
chain: SSSSSDEVAQLLFRALRLLYEGNPEEAEEVAREAEELARELGDEELLRYVEILKHFIEAHSSSSS
B10: il10ra_site1_sap_16_mot_HHH_b2_05532_000000217_0001_1_18_H_._HHH_b2_01830_0001_0000200013_0000001_0_0001 (protein)
chain: SSSSSREEVEELLEELERLLEEGDQERFIRLAQEIVQLAIQVSDPELLQALWRLVEEFGRKSSSS

This assay has as its target il10ra, Q13651. The assay is described as follows: yeast display titration.
Turning to B1, the “apparent Kd” value was “inactive: no binding seen”.
The entry for B2 is “inactive: no binding seen”.
The entry for B3 is “inactive: no binding seen”.
In the case of B4 it was “inactive: no binding seen”; in that of B5, “inactive: no binding seen”; in that of B6, “inactive: no binding seen”.
For the molecule B7, the “apparent Kd” value was “inactive: no binding seen”.
As for B8, the “apparent Kd” value is “inactive: no binding seen”.
In the case of B9 it was “inactive: no binding seen”.
In the case of B10 it was “inactive: no binding seen”.
